No constants are given. Whether binding was seen depends on the method and setting. In cells and extracts the contact can be indirect. Some entries that bind do so weakly or less than the wild type. For some assays here: Tags and fused reporters may be left off the sequences shown. One block for each binder: values may come before it.
Assays:
Experiment in all cases: pull-down; RING1B, PCGF1 and RYBP coexpressed in E. coli from one polycistronic plasmid; trimeric complexes affinity purified via 6xHis-tagged RING1B on Ni2+-charged IMAC Sepharose (lysis 20 mM Tris pH 8.0, 500 mM NaCl, 0.1% NP-40; wash 300 mM NaCl, 20 mM imidazole); Coomassie-stained gel
[1] = target: RING1B^I53A/D56K, tagged with StrepII and 6xHis tags (mouse) (UniProt Q9CQJ4)
[2] = target: RING1B (wild-type), tagged with StrepII and 6xHis tags (mouse) (UniProt Q9CQJ4)
[3] = target: RING1B^I53A, tagged with StrepII and 6xHis tags (mouse) (UniProt Q9CQJ4)
[4] = target: T1, RING1B^I53A, tagged with StrepII and 6xHis tags (mouse), Q9CQJ4; conditions: remark: other sources report otherwise
T1 chain: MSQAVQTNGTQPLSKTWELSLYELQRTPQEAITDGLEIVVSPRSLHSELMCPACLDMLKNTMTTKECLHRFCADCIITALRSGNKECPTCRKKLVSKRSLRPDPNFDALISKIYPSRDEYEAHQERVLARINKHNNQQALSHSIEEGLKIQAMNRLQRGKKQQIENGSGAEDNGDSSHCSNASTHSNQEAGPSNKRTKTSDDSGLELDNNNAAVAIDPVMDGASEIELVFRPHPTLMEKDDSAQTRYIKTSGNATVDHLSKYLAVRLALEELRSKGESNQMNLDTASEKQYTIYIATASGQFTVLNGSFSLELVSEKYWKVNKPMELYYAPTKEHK

binding [1]: binds
binding [2]: binds
binding [3]: binds
B1: RYBP (protein, UniProt Q8CCI5 1-228)
chain: MTMGDKKSPTRPKRQAKPAADEGFWDCSVCTFRNSAEAFKCSICDVRKGTSTRKPRINSQLVAQQVAQQYATPPPPKKEKKEKVEKPDKEKPEKDKDISPSVTKKNTNKKTKPKSDILKDPPSEANSIQSANATTKTSETNHTSRPRLKNVDRSTAQQLAVTVGNVTVIITDFKEKTRSSSTSSSTVTSSAGSEQQNQSSSGSESTDKGSSRSSTPKGDMSAVNDESF

binding [4]: binds
B2: PCGF1, Q8R023 1-259 (protein)
chain: MASPQGGQIAIAMRLRNQLQSVYKMDPLRNEEEVRVKIKDLNEHIVCCLCAGYFVDATTITECLHTFCKSCIVKYLQTSKYCPMCNIKIHETQPLLNLKLDRVMQDIVYKLVPGLQDSEEKRIREFYQSRGLDRVSQPSGEEPALSNLGLPFSSFDHSKAHYYRYDEQLSLCLERLSSGKDKNKNVLQNKYVRCSVRAEVRHLRRVLCHRLMLNPQHVQLLFDNEVLPDHMTMKQLWLSRWFGKPSPLLLQYSVKEKRR

binding [1]: binds
B3: PCGF1 (protein, UniProt Q8R023 1-259)
chain: B2 chain

— publication PMC7033600
